# From PMC12670160, “A drug-repurposing screen of FDA- and EMA-approved drugs identifies two NF-κB inhibitors active against eumycetoma” (Journal of Antimicrobial Chemotherapy, 2025)
# Counter-ions that a name gives are not always drawn. The campaign covered roughly 5,300 compounds. About 130 (2.5%) showed an effect of 50% or more. The list shows a part of the results.
# Tested on: M. mycetomatis strain mm55
# Details: primary screen, metabolic activity vs growth control; 96 h, 2 µM; inhibitor
row,SMILES,% viability [%]
1,"O=C1c2cccc(O)c2C(=O)c2c(O)cccc21 [ONC0003324, danthron]",56.8
2,"O=c1[nH]c(CCl)nc2sc3c(c12)CCCC3 [ONC0003871, 2chloromethyl5678tetrahydro1benzothieno23dpyrimidin43hone]",86.89
3,"CC(C)NNC(=O)c1ccncc1 [ONC0003822, iproniazid phosphate]",71.6
4,"CNCC(=O)O [ONC0003726, sarcosine]",140.3
5,"O=C1S/C(=C\c2ccc(OCc3cccc(B(O)O)c3)cc2)C(=O)N1Cc1ccc(F)cc1 [ONC0002550, ha130]",76.52
6,"Cc1ccc(Sc2cncc3sc(C(N)=O)cc23)cc1 [ONC0003151, a205804]",78.92
7,"Cc1c(C(=O)Nc2ccc(N3C[C@@H](C)O[C@@H](C)C3)nc2)cccc1-c1ccc(OC(F)(F)F)cc1 [ONC0004913, lde225 nvplde225 erismodegib]",90.24
8,"Nc1cc(C(F)(F)F)c(-c2cc(N3CCOCC3)nc(N3CCOCC3)n2)cn1 [ONC0004946, bkm120 nvpbkm120]",113
9,"CC(=O)N=c1sc(S(N)(=O)=O)nn1C [ONC0003108, methazolamide]",67.22
10,"CCCCCN(CCCOC)C(=O)[C@@H](CCC(=O)O)NC(=O)c1ccc(Cl)c(Cl)c1 [ONC0003408, dexloxiglumide]",69.48
11,"Cc1cnc(NC(=O)Nc2cc(Br)c(C)cc2OC[C@@H]2CNCCO2)cn1 [ONC0005090, ly2603618 ic83]",66.5
12,"O=C(O)c1cc(=O)c2ccccc2[nH]1 [ONC0000035, kynurenicacid]",107.8
13,"N[C@H](C(=O)O)c1ccc(C(=O)O)c(O)c1 [ONC0000126, 4carboxy3hydroxyphenylglycines]",82.71
14,"C=C1/C(=C\C=C2/CCC[C@]3(C)[C@@H]([C@H](C)CC[C@@H](O)C(C)C)CC[C@@H]23)C[C@@H](O)C[C@@H]1O [ONC0003445, tacalcitol]",80.23
15,"CCC(CO)(C(=O)OC1CC2CCC(C1)[N+]2(C)C)c1ccccc1 (centres unmarked) [ONC0002616, 32hydroxymethyl2phenylbutanoyloxy88dimethyl8azoniabicyclo321octane iodide]",59.82
16,"CC(CNC(=O)c1cccnc1)NC(=O)c1cccnc1 (centres unmarked) [ONC0004572, nicaraven]",59.54
17,"O=C1C=CC[C@@H]2[C@H]3CCCN4CCC[C@@H](CN12)[C@@H]34 [ONC0003435, sophocarpine]",68.56
18,"O=C(Nc1ccccc1)N1CCN(c2nc(-c3ccccc3)ns2)CC1 [ONC0005025, jnj 1661010]",98.63
19,"O=C(O)C(=O)CBr [ONC0001161, 3bromopyruvic acid]",97.63
20,"CC(C)SC(=N)N [ONC0000298, sisopropylisothiourea]",89.13
21,"O=C(c1ccc(Cl)cc1)N(Cc1ccccc1)C1CCCCC1 [ONC0001245, fpszm1]",58.23

row,SMILES,% viability [%]
1,"CCCCCCCCCC(=O)OCCN1CCN(CCCN2c3ccccc3Sc3ccc(C(F)(F)F)cc32)CC1 [ONC0003289, fluphenazine decanoate]",48.22
2,"CC(C)OC(=O)[C@H](C)N[P@@](=O)(OC[C@H]1O[C@@H](n2ccc(=O)[nH]c2=O)[C@](C)(F)[C@@H]1O)Oc1ccccc1 [ONC0001857, psi7976]",73.8
3,"CN(c1ncccc1CNc1nc(Nc2ccc3c(c2)CC(=O)N3)ncc1C(F)(F)F)S(C)(=O)=O [ONC0004362, pf00562271]",95.95
4,"Cn1nc(C(C)(C)C)cc1C(=O)N[C@@H](Cc1cccc(Cl)c1)C(=O)NCC#N [ONC0005054, cathepsin inhibitor 1]",77.37
5,"CN(C)CCc1c[nH]c2ccc(CS(=O)(=O)N3CCCC3)cc12 [ONC0004784, almotriptan malate axert]",131.3
6,"CCc1ccc(OCc2ccccc2C(=O)Nc2ccc3nc(C)cc(N)c3c2)cc1 [ONC0003651, jtc801]",82.86
7,"CC1(COc2ccc(CC3SC(=O)NC3=O)cc2)CCCCC1 (centres unmarked) [ONC0000875, ciglitazone]",113.7
8,"CCCCc1ncc(/C=C(\Cc2cccs2)C(=O)O)n1Cc1ccc(C(=O)O)cc1 [ONC0004516, eprosartan mesylate]",73.08
9,"N[C@@H](Cc1ccc(O)c(O)c1)C(=O)O [ONC0005307, levodopa]",113.5
10,"C[N@@+]1(CC2CC2)CC[C@]23c4c5ccc(O)c4O[C@H]2C(=O)CC[C@@]3(O)[C@H]1C5 [ONC0001777, methylnaltrexone bromide]",112.6
11,"c1coc(-c2nnc3sc(C4CCCCC4)nn23)c1 [ONC0002694, cardionogen1]",66.72
12,"CN1CCN2c3ccccc3Cc3ccccc3C2C1 (centres unmarked) [ONC0005339, mianserin hydrochloride]",65.89
13,"CCCCCCCCOc1ccccc1C(=O)Nc1ccc(C(=O)OCC[N+](C)(CC)CC)cc1 [ONC0004831, otilonium bromide]",103.3
14,C[C@@H](c1nc(-c2ccc(C#N)cc2)cs1)[C@](O)(Cn1cncn1)c1ccc(F)cc1F [Ravuconazole],0.9972
15,"O=C(O)CCC(=O)c1ccc(-c2ccccc2)cc1 [ONC0003215, fenbufen]",83.01
16,"CC1(C)OC2(C)C(O)CC1CC2O (centres unmarked) [ONC0003817, epomediol]",42.26
17,"CC(OC(=O)NCC1(CC(=O)O)CCCCC1)OC(=O)C(C)C (centres unmarked) [ONC0003375, gabapentinenacarbil]",59.83
18,"COc1ccc(/C=C/C(=O)O)cc1 [ONC0003824, trans4methoxycinnamicacid]",65.15
19,"O=C1c2c(O)ccc(O)c2C(=O)c2c(NCCNCCO)ccc(NCCNCCO)c21 [ONC0003099, mitoxantrone hydrochloride]",70.36
20,"O=C(Nc1ccccc1)N[C@H]1C[C@H](C(=O)O)Nc2cc(Cl)cc(Cl)c21 [ONC0001416, l689560]",56.01
21,"CC(=O)O[C@H]1C[C@@H]2CC[C@@H]3[C@H](CC[C@@]4(C)[C@H]3C[C@H]([N+]3(C)CCCCC3)[C@@H]4OC(C)=O)[C@@]2(C)C[C@@H]1[N+]1(C)CCCCC1 [ONC0004633, pancuronium dibromide]",63.07

row,SMILES,% viability [%]
1,"CCOC(=O)c1ccc(NC2CCCCC2)c(N)c1 [ONC0000320, ferrostatin1]",39.11
2,"CO[C@H]1C[C@H](O[C@@H]2/C(C)=C/C[C@@H]3C[C@@H](C[C@]4(CC[C@H](C)[C@@H](C5CCCCC5)O4)O3)OC(=O)[C@@H]3C=C(C)/C(=N/O)[C@H]4OC/C(=C\C=C\[C@@H]2C)[C@]43O)O[C@@H](C)[C@@H]1O [ONC0002417, selamectin]",96.9
3,"CN1CCN(Cc2ccc(-c3cnc4[nH]cc(-c5ccc6[nH]ccc6c5)c4c3)cc2)CC1 [ONC0000994, urmc099]",71.46
4,"CC(C)(O)CC(=O)O.CC(C)(O)CC(=O)O [ONC0002971, betahydroxybetamethylbutyrate]",141.8
5,"O=C1C[C@@]2(C(=O)N1)C(=O)N(Cc1ccc(Br)cc1F)C(=O)c1cccn12 [ONC0002077, ranirestat]",79.29
6,"CCc1cc2c(c(CC)n1)CCC(=O)N2Cc1ccc(-c2ccccc2-c2nnn[nH]2)cc1 [ONC0001547, zd7155]",109.6
7,"CCOC(=O)C1=C(C)NC(C)=C(C(=O)OC)C1c1cccc(Cl)c1Cl (centres unmarked) [ONC0003969, felodipine]",118
8,"COc1ccc(-c2oc3cc(OC)ccc3c2C(=O)c2ccc(C#N)cc2)cc1 [ONC0003731, ly320135]",107.3
9,"COC(=O)/C=C/C(=O)OC [ONC0005346, dimethyl fumarate]",122.8
10,"O=C(NNc1nc2cc(F)ccc2n2cccc12)c1cnccn1 [ONC0005161, sc144]",101.7
11,"CC(C)(C)NC[C@H](O)COc1cccc2c1CCCC2=O [ONC0002946, levobunolol]",70.13
12,"COc1ccc(S(=O)(=O)N2CCCN(S(=O)(=O)c3ccc(OC)c(OC)c3)CC2)cc1OC [ONC0002341, sb756050]",63.57
13,"CC(C)c1cc(C(C)C)c(CC(=O)NS(=O)(=O)Oc2c(C(C)C)cccc2C(C)C)c(C(C)C)c1 [ONC0005210, avasimibe ci1011]",127
14,"CC(C)c1cc(CNc2nc(Nc3cc(C4CC4)[nH]n3)cc(N3CCN(C)CC3)n2)on1 [ONC0000976, xl228]",85.75
15,"C[N+](C)(C)CCOC(N)=O [ONC0000782, carbachol]",56.18
16,"O=C(NC(Cc1cc(=O)[nH]c2ccccc12)C(=O)O)c1ccc(Cl)cc1 (centres unmarked) [ONC0003985, rebamipide]",70.5
17,"CC(C)(O)CC(=O)NCCn1ccc2ncnc(Nc3ccc(Oc4cccc(C(F)(F)F)c4)c(Cl)c3)c21 [ONC0004332, tak285]",87.28
18,"CCC1(C)CC(=O)NC1=O (centres unmarked) [ONC0004181, ethosuximide]",56.87
19,"CC(=O)Nc1ccc(OC(C)=O)cc1 [ONC0004277, diacetamate]",91.81
20,"NC1CCN(c2c(F)cc3c(=O)c(C(=O)O)cn(C4CC4)c3c2Cl)C1 (centres unmarked) [ONC0005238, clinafloxacin pd127391]",132.9

# Reformatted tab-delimited: 2 of the compounds above
row	SMILES	% viability [%]
10	O=C(NNc1nc2cc(F)ccc2n2cccc12)c1cnccn1 [ONC0005161, sc144]	101.7
11	CC(C)(C)NC[C@H](O)COc1cccc2c1CCCC2=O [ONC0002946, levobunolol]	70.13

# Molecules above with a furan ring, fused or not (2):
row,SMILES,% viability [%]
11,"c1coc(-c2nnc3sc(C4CCCCC4)nn23)c1 [ONC0002694, cardionogen1]",66.72
8,"COc1ccc(-c2oc3cc(OC)ccc3c2C(=O)c2ccc(C#N)cc2)cc1 [ONC0003731, ly320135]",107.3
